Experimental data as given in the supplement of paper PMC7024190.
Where a name gives a salt, the structure may show the parent alone. The list shows a part of the results. Repeats in this data set agree poorly, so a single value says little.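 The cells were human embryonic kidney cells carrying a Renilla luciferase gene, driven by the HSV-TK promoter, on a plasmid put in briefly by transfection. This is the first-round screen of about ten thousand compounds, looking for ones that raise reporter output.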

These molecules were tested on HEK 293FT (assay: log relative Renilla luciferase luminescence (reporter expression vs reference, reference not stated) (log (base not stated)); higher = higher recombinant reporter expression). Conditions: 10 µM; time after transfection 48 h.
With `CN/C(=N\CCSCc1nc[nH]c1C)NC#N` [cimetidine] the log was -0.0611.
`O=C(O)c1cc(/N=N/c2ccc(S(=O)(=O)Nc3ccccn3)cc2)ccc1O` [sulfasalazine] showed a log of -0.0721.
`CC(N)CCCC(C)(C)O` (stereo unspecified) [heptaminol hydrochloride] showed a log of 0.109.
`CN1CCCN=C1/C=C/c1cccc(O)c1` [oxantel pamoate] gave a log of 0.162.
Molecule `N#CCC(=O)NN` [cyacetacide] has a log of 0.176.
`Oc1cccc(O)c1` [resorcinol] showed a log of 0.0391.
Work on `Cc1cc(O)cc(C)c1Cl` [chloroxylenol] yielded a log of -0.133.
`CC(=O)N(c1onc(C)c1C)S(=O)(=O)c1ccc(N)cc1` [sulfisoxazole acetyl] showed a log of -0.0767.
In the case of `C=C1CCC(C2CC(=O)OC2=O)C(=O)CCC2C1CC2(C)C` (stereo unspecified), the log is reported as 0.0544.
With `CC=CC1=C(C(=O)O)N2C(=O)[C@@H](NC(=O)[C@H](N)c3ccc(O)cc3)[C@H]2SC1` [cefprozil] the log was 0.109.
`O=C1c2ccccc2C(=O)C1c1ccc(Br)cc1` [bromindione] gave a log of 0.0751.
Work on `NC(=O)CC[C@H](N)C(=O)O` [glutamine (l)] yielded a log of -0.3.
`Cc1cc2c(s1)Nc1ccccc1N=C2N1CCN(C)CC1` [olanzapine] was tested, and the log was -0.177.
Work on `CC1(C)C(O[C@@H]2OC[C@@H](O)[C@H](O)[C@H]2O)CC[C@]23CC24CC[C@]2(C)[C@@H]([C@@]5(C)CC[C@@H](C(C)(C)O)O5)[C@H](O)C[C@@]2(C)C4C[C@@H](O[C@@H]2O[C@H](CO)[C@@H](O)[C@H](O)[C@H]2O)C13` (stereo partly specified) [astragaloside iv] yielded a log of 0.0536.
`CCOC(=S)SSC(=S)OCC` [dixanthogen] gave a log of 0.0954.
With `CC(C)OC(=O)C(C)(C)Oc1ccc(C(=O)c2ccc(Cl)cc2)cc1` [fenofibrate] the log was -0.0673.
`CC(C)(C)CC(C)(C)c1cc(Cc2cc(C(C)(C)CC(C)(C)C)cc(-n3nc4ccccc4n3)c2O)c(O)c(-n2nc3ccccc3n2)c1` [bisoctrizole] gave a log of -0.124.
Work on `NC(=O)c1cnccn1` [pyrazinamide] yielded a log of -0.0483.
With `CC(=O)c1ccc[nH]1` [2-acetylpyrrole] the log was 0.151.
Molecule `O=C(CCNNC(=O)c1ccncc1)NCc1ccccc1` [nialamide] has a log of -0.032.
Molecule `Cc1nc2ccccn2c(=O)c1CCN1CCC(C(=O)c2ccc(F)cc2)CC1` [pirenperone] has a log of -0.233.
For `COc1cccc2c1C(=O)c1c(O)c3c(c(O)c1C2=O)C[C@@](O)(C(=O)CO)C[C@@H]3O[C@H]1C[C@H](N)[C@@H](O)[C@H](C)O1` [epirubicin hydrochloride], the log was -1.12.
`COc1ccc2c(c1)CC[C@@H]1[C@@H]2CC[C@]2(C)[C@@H](O)CC[C@@H]12` [estradiol methyl ether] showed a log of -0.00278.
`O[C@H]1[C@H](O)[C@@H](O)[C@H](O)[C@@H](O)[C@H]1O` [inositol] was tested, and the log was 0.0605.
For `CCCN(CCC)CCc1cccc2c1CC(=O)N2` [ropinirole hydrochloride], the log was 0.00202.
For `C/C=C/c1ccc(OC)cc1` [anethole], the log was 0.248.
For `C=C(C)[C@@H]1CC[C@]2(CO)CC[C@]3(C)[C@H](CC[C@@H]4[C@@]5(C)CC[C@H](O)C(C)(C)[C@@H]5CC[C@]43C)[C@@H]12` [betulin], the log was 0.0127.
For `CC(=O)O[C@H]1C(=O)[C@@]2(C)[C@H]([C@H](OC(=O)c3ccccc3)[C@]3(O)C[C@H](OC(=O)[C@H](O)[C@@H](NC(=O)c4ccccc4)c4ccccc4)C(C)=C1C3(C)C)[C@]1(OC(C)=O)CO[C@@H]1C[C@@H]2O` [paclitaxel], the log was 0.318.
With `CC1=C(/C=C/C(C)=C/C=C/C(C)=C/CO)C(C)(C)CCC1` [retinol] the log was -0.0698.
In the case of `O=C(O)c1ccccc1OP(=O)(O)O` [fosfosal], the log is reported as 0.0728.
`COC(=O)c1c(C)cc(OC(=O)c2c(C)cc(O)c(C=O)c2O)c(C)c1O` [atranorin] showed a log of 0.0881.
For `C/C=C(/C(=C/C)c1ccc(O)cc1)c1ccc(O)cc1` [dienestrol], the log was -0.0124.
In the case of `Cc1ncc([N+](=O)[O-])n1CC(C)O` (stereo unspecified) [secnidazole], the log is reported as 0.0363.
With `C[C@]12CCC(=O)C=C1[C@@H]1C[C@@H]1[C@H]1[C@@H]3[C@@H]4C[C@@H]4[C@@]4(CCC(=O)O4)[C@@]3(C)CC[C@@H]12` [drospirenone] the log was -0.232.
`Nc1cc(N2CCCCC2)nc(N)[n+]1[O-]` [minoxidil] was tested, and the log was -0.0548.
`CC1(C)S[C@@H]2[C@H](NC(=O)[C@H](N)c3ccccc3)C(=O)N2[C@H]1C(=O)O` [ampicillin sodium] was tested, and the log was -0.393.
Work on `C=C[C@H]1CN2CC[C@H]1C[C@H]2[C@H](O)c1ccnc2ccc(OC)cc12` [quinine sulfate] yielded a log of 0.0656.
`O=C(/C=C/c1ccccc1)c1ccc(O[C@@H]2O[C@H](CO)[C@@H](O)[C@H](O)[C@H]2O)cc1O` [2',4'-dihydroxychalcone 4'-glucoside] gave a log of 0.098.
`O=c1n(CCCN2CCN(c3cccc(Cl)c3)CC2)nc2ccccn12` [trazodone hydrochloride] showed a log of -0.0403.
With `CC(=O)NCCCCCC(=O)O` [acexamic acid] the log was -0.0193.
Work on `O=C(O)c1cc(=O)[nH]c(=O)[nH]1` [orotic acid] yielded a log of -1.34.
`COc1ccc([C@@H](C)C(=O)c2ccc(O)cc2O)cc1` [angolensin (r)] gave a log of 0.127.
Work on `NC(=O)NCCC[C@H](N)C(=O)O` [citrulline] yielded a log of 0.158.
Work on `O=c1oc2c(O)c(O)cc3c(=O)oc4c(O)c(O)cc1c4c23` [ellagic acid] yielded a log of -0.00801.
`O=C1NS(=O)(=O)c2ccccc21` [saccharin] showed a log of -0.19.
Work on `CC(=O)CC(c1ccccc1)c1c(O)c2ccccc2oc1=O` (stereo unspecified) [warfarin] yielded a log of 0.112.
Molecule `CCN(CC)CC(=O)Nc1c(C)cccc1C` [lidocaine hydrochloride] has a log of -0.0915.
Work on `CC(=O)OCC(=O)[C@@]12OC(C)(C)O[C@@H]1C[C@H]1[C@@H]3C[C@H](F)C4=CC(=O)C=C[C@]4(C)[C@@]3(F)[C@@H](O)C[C@@]12C` [fluocinonide] yielded a log of 0.138.
`c1ccc2c(CC3=NCCN3)cccc2c1` [naphazoline hydrochloride] gave a log of -0.00978.
Work on `OCc1ccccc1O[C@@H]1O[C@H](CO)[C@@H](O)[C@H](O)[C@H]1O` [salicin] yielded a log of 0.0553.
For `CN1C(CCl)Nc2cc(Cl)c(S(N)(=O)=O)cc2S1(=O)=O` (stereo unspecified) [methyclothiazide], the log was -0.0385.
With `C=CC1=C(C(=O)O)N2C(=O)[C@@H](NC(=O)/C(=N\O)c3csc(N)n3)[C@H]2SC1` [cefdinir] the log was 0.00695.
In the case of `Cc1cn([C@H]2C=C[C@@H](CO)O2)c(=O)[nH]c1=O` [stavudine], the log is reported as 0.129.
`CC(=O)NS(=O)(=O)c1ccc(N)cc1` [sulfacetamide] was tested, and the log was 0.0299.
With `C=C1CC[C@@H]2[C@](C)(CO)[C@H](O)CC[C@@]2(C)[C@@H]1C/C=C1/C(=O)OC[C@H]1O` [andrographolide] the log was 0.0243.
For `Oc1ccc([C@H]2Oc3cc(O)cc(O)c3C[C@H]2O)cc1` [epiafzelechin (2r,3r)(-)], the log was 0.184.
Work on `COc1cccc2c1C(=O)c1c(O)c3c(c(O)c1C2=O)C[C@@](O)(C(C)=O)C[C@@H]3O[C@H]1C[C@H](N)[C@H](O)[C@H](C)O1` [daunorubicin] yielded a log of -1.36.
Molecule `O=C(/C=C/c1ccc(O)cc1)c1ccc(O)cc1O` [isoliquiritigenin] has a log of -0.301.
With `Cc1c(NC(=O)c2cccnc2)c(=O)n(-c2ccccc2)n1C` [nifenazone] the log was 0.0585.
For `CS(=O)(=O)OCCCCOS(C)(=O)=O` [busulfan], the log was -0.0982.
`OCc1c[nH]c2ccccc12` [indole-3-carbinol] showed a log of 0.126.
`COc1ccc(-c2coc3c(O)c(O)c(OC)cc3c2=O)cc1` [dipteryxin] was tested, and the log was 0.142.
With `CC(O)Cn1cnc2c1c(=O)n(C)c(=O)n2C` (stereo unspecified) [proxyphylline] the log was 0.0233.
With `N[C@@H](Cc1c[nH]c2ccccc12)C(=O)O` [tryptophan] the log was -0.0373.
`O=C(OOC(=O)c1ccccc1)c1ccccc1` [benzoyl peroxide] showed a log of -0.189.
`CCC1(C)OC(=O)N(C)C1=O` (stereo unspecified) [paramethadione] gave a log of -0.0757.
For `NC(=O)CCCCC1CCSS1` (stereo unspecified) [lipoamide], the log was 0.0757.
`C=C(C)[C@H]1CC=C(C)CC1` [d-limonene] showed a log of 0.0954.
`NS(=O)(=O)c1cc2c(cc1C(F)(F)F)NCNS2(=O)=O` [hydroflumethiazide] was tested, and the log was 0.106.
With `CN1C(=O)CC[C@H]1c1cccnc1` [cotinine] the log was -0.376.
`CC[C@@H]1C(=O)OC[C@@H]1Cc1cncn1C` [pilocarpine nitrate] gave a log of 0.0824.
With `NC[C@@H]1O[C@@H](O[C@H]2[C@H](O)[C@@H](O[C@H]3O[C@H](CO)[C@@H](O)[C@H](N)[C@H]3O)[C@H](N)C[C@@H]2N)[C@@H](O)[C@H](O)[C@H]1O` [kanamycin a sulfate] the log was 0.00732.
Work on `CC1CC(OC(=O)c2ccccc2O)CC(C)(C)C1` (stereo unspecified) [homosalate] yielded a log of 0.097.
In the case of `CC(C)c1ccc2c(c1)CCC1[C@](C)(CN)CCC[C@]21C` (stereo partly specified) [18-aminoabieta-8,11,13-triene sulfate], the log is reported as 0.154.
With `C[C@H](CCC(=O)O)[C@H]1CC[C@H]2[C@@H]3[C@@H](O)C[C@@H]4C[C@H](O)CC[C@]4(C)[C@H]3CC[C@]12C` [ursodiol] the log was -0.0153.
For `O=C(CCCN1CCN(c2ccccn2)CC1)c1ccc(F)cc1` [azaperone], the log was 0.0463.
`CN1CCC(=C2c3ccccc3Sc3ccccc32)CC1` [pimethixene maleate] gave a log of 0.0689.
Molecule `Nc1c2ccccc2nc2ccccc12` [aminacrine] has a log of -0.125.
With `COC1=CC(=O)C(C(=O)c2ccccc2)=CC1=O` [2-benzoyl-5-methoxybenzoquinone] the log was -0.114.
With `N[C@@H](Cc1cc(I)c(Oc2ccc(O)c(I)c2)c(I)c1)C(=O)O` [liothyronine (l- isomer) sodium] the log was -0.0372.
`N[C@@H](Cc1cc(I)c(Oc2ccc(O)c(I)c2)c(I)c1)C(=O)O` [liothyronine] gave a log of 0.195.
